The record followed here is publication PMC10166511, “Fast cross-linking by DOPA2 promotes the capturing of a stereospecific protein complex over nonspecific encounter complexes” (Biophysics Reports, 2022).

By UniProt entry, the sequences of proteins in these tests, tags left out. Residues count along the entry.
UniProt P69783, residues 2-169: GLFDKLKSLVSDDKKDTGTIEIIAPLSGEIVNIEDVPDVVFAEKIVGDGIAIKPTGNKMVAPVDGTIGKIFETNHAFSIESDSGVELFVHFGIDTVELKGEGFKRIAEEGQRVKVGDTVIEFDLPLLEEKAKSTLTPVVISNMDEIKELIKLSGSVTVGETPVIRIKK

The target in the assay is T1, EIIA^Glc (UniProt P69783 2-169).
T1 construct: EIIA^Glc, functional subunit of Enzyme II of the bacterial glucose phosphotransferase system; Species is stated only for enzyme I (E. coli); source: purified as previously described (Garrett et al. 1999; Xing et al. 2014)
Description: cross-linking; DOPA2 (0.005-0.8 mmol/L, room temperature, 10 min) or DSS (0.05-0.8 mmol/L, room temperature, 1 h); proteins at 1 x KD and 10 x KD in 20 mmol/L HEPES, 150 mmol/L NaCl, pH 7.4; read by SDS-PAGE and by LC-MS/MS after in-gel or in-solution digestion; both purified.

These are yes or no findings as the source states them, for the method shown. Some entries that bind do so weakly or less than the wild type.

B1: EIIB^Glc (domain or fragment)
chain: EDATEDAKATGTSEMAPALVAAFGGKENITNLDACITRLRVSVADVSKVDQAGLKKLGAAGVVVAGSGVQAIFGTKSDNLKTEMDEYIRN
notes: EIIB^Glc, functional subunit of Enzyme II of the bacterial glucose phosphotransferase system; Species is stated only for enzyme I (E. coli); source: purified as previously described (Garrett et al. 1999; Xing et al. 2014)
For B1, the binding result is reported as “binds weakly”.
